The exact form of at least one protein or probe is not confirmed. For part of these data: A weaker result is weaker than the reference pair of the same experiment. For part of these data: At least one verdict rests on a figure or table, not on a statement of the authors. Where a protein sequence is shown, tags need not be part of it.
The sequences below were run against T1, EcTopoI (topoisomerase I) (Escherichia coli DY330) (UniProt P06612) (assay: competition with a labelled probe). Conditions: vs labeled consensus, complex refractory up to 16-fold excess; EMSA: 10 mM Tris-HCl pH 7.5, 50 mM NaCl, 6 mM MgCl2, 37 C 10 min; recombinant protein; single-stranded DNA.
T1 sequence (looked up, limits assumed): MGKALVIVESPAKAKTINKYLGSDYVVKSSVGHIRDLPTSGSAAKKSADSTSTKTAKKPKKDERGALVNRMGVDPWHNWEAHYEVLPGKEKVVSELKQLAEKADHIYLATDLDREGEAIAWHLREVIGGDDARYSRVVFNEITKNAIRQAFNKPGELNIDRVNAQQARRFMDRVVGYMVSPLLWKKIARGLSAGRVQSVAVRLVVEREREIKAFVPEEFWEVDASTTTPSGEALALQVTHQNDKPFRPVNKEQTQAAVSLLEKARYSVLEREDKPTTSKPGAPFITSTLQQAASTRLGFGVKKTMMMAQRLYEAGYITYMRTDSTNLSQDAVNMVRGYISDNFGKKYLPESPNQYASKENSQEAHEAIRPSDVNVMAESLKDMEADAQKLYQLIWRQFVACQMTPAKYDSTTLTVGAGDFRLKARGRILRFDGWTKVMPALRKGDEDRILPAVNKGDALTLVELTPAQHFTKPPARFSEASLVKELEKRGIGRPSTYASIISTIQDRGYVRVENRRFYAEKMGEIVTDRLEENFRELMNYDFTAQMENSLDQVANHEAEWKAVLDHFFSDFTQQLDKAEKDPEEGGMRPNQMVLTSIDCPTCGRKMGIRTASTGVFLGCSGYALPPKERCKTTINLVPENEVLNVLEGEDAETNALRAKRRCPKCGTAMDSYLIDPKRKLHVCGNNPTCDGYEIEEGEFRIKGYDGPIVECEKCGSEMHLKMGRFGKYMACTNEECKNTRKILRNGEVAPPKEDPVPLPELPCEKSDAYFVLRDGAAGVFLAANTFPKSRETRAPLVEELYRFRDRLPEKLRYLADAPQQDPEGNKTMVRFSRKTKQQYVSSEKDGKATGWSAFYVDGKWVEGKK

Sequence	binding result
GCGTTTTTTTTTTTTTTTTTTTTGCG [Poly-T, unlabeled]	binds more weakly
CGCTCCGCACTGCGGATTACGTGCGC [Random R, unlabeled]	binds more weakly
GCGCACGTAATCCGCAGTGCGGTGCG [Random F, unlabeled]	binds more weakly

Same assay, conditions: vs labeled control oligos, 50-90% dissociation at 1:1 for consensus oligos; EMSA: 10 mM Tris-HCl pH 7.5, 50 mM NaCl, 6 mM MgCl2, 37 C 10 min; recombinant protein; single-stranded DNA

Sequence	binding result
CGCAAAAATAATGAAGAAAAAAACGC [Consensus R, unlabeled]	binds
GCGTTTTTTTCTTCATTATTTTTGCG [Consensus F, unlabeled]	binds

The sequences below were run against T1, EcTopoI (topoisomerase I) (Escherichia coli DY330) (assay: EMSA). Conditions: 6 mM Mg2+, value assigned from figure text order; EMSA: 10 mM Tris-HCl pH 7.5, 50 mM NaCl, 6 mM MgCl2, 37 C 10 min; recombinant protein; label: 5'-Cy5; single-stranded DNA.

Sequence	Kd [nM]
CGCAAAAAAAAAAAAAAAAAAAACGC [Poly-A]	223
GCGTTTTTTTTTTTTTTTTTTTTGCG [Poly-T]	290
GCGCACGTAATCCGCAGTGCGGTGCG [Random F]	357
CGCTCCGCACTGCGGATTACGTGCGC [Random R]	457
